Data as given in PubChem BioAssay AID1224826 (NIAID, 2016).

Screen: 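Knock-downs that raise or lower Tnf reporter signal after endotoxin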 (primary screen)
System: RAW264.7 G9 macrophages from mouse bearing reporters for p65 (GFP) and the Tnf promoter (mCherry)
Knock-down reagent: siRNA pool against mouse genes, 100 nM
Duration: 16 h of LPS stimulation, after 2 days of siRNA transfection
Treatment: bacterial lipopolysaccharide (Salmonella minnesota R595), 10 ng/ml
Read-out: 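Imaged Tnf reporter mCherry in nuclei, minus background, normalised per plate to the median and expressed as robust z-scores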
Reading the numbers: Tnf reporter robust z-score: higher = stronger Tnf promoter reporter signal after LPS
Active means: 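a well counts as active at a score of -1.3 or below (Tlr4 knock-down control median) or above 3 (raised signal); controls and wells holding fewer than 50 cells are excluded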
Calls: active = Tnf reporter clearly lowered or raised; inactive = no clear change in Tnf reporter
The deposit covers about 17,000 reagents; shown is a random part of them. Over the whole deposit, about 1,110 (6.6%) were called active. 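Active means lowered or raised reporter signal; replicate intensities are raw and not normalised per plate.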 A number with no mark means an inactive call. Further read-outs or replicates are left out here. No sequences are given here.

| gene | Tnf reporter robust z-score | fewer than 50 cells in well |
| --- | --- | --- |
| Gng4 (guanine nucleotide binding protein (G protein), gamma 4) | -1.29 | enough cells in well |
| Or10c1 (olfactory receptor family 10 subfamily C member 1) | -1.14 | enough cells in well |
| Tnfrsf8 (tumor necrosis factor receptor superfamily, member 8) | -0.93 | enough cells in well |
| Nfe2 (nuclear factor, erythroid derived 2) | -1.51 (active) | enough cells in well |
| Igflr1 (IGF-like family receptor 1) | -1.43 (active) | enough cells in well |
| Eif2ak3 (eukaryotic translation initiation factor 2 alpha kinase 3) | -0.83 | enough cells in well |
| Ptpn20 (protein tyrosine phosphatase, non-receptor type 20) | -0.34 | enough cells in well |
| Ttpa (tocopherol (alpha) transfer protein) | -0.01 | enough cells in well |
| U55872 (retired record) | -1.88 (active) | enough cells in well |
| Wbp4 (WW domain binding protein 4) | -0.68 | enough cells in well |
| Nucb1 (nucleobindin 1) | -0.9 | enough cells in well |
| Pex3 (peroxisomal biogenesis factor 3) | 0.05 | enough cells in well |
| Clip4 (CAP-GLY domain containing linker protein family, member 4) | 0.88 | enough cells in well |
| Eif3h (eukaryotic translation initiation factor 3, subunit H) | -0.3 | enough cells in well |
| BC106179 (cDNA sequence BC106179) | -0.06 | enough cells in well |
| Bbx (bobby sox HMG box containing) | – | fewer than 50 cells per well; well left out of calls |
| Smim11 (small integral membrane protein 11) | – | fewer than 50 cells per well; well left out of calls |
| Tuba1c (tubulin, alpha 1C) | – | fewer than 50 cells per well; well left out of calls |
| Atpaf1 (ATP synthase mitochondrial F1 complex assembly factor 1) | 1.47 | enough cells in well |
| Nkiras2 (NFKB inhibitor interacting Ras-like protein 2) | -1.01 | enough cells in well |
| A530053G22Rik (RIKEN cDNA A530053G22 gene) | 1.5 | enough cells in well |
| Tafa1 (TAFA chemokine like family member 1) | 2.02 | enough cells in well |
| Oas1a (2'-5' oligoadenylate synthetase 1A) | 0.76 | enough cells in well |
| A130010J15Rik (RIKEN cDNA A130010J15 gene) | 1.36 | enough cells in well |
| Or5b21 (olfactory receptor family 5 subfamily B member 21) | -0.85 | enough cells in well |
| Cdh26 (cadherin-like 26) | 0.57 | enough cells in well |
| Pex11a (peroxisomal biogenesis factor 11 alpha) | -1.05 | enough cells in well |
| Tbr1 (T-box brain transcription factor 1) | 0.47 | enough cells in well |
| Ankrd34c (ankyrin repeat domain 34C) | 0.05 | enough cells in well |
| Il4ra (interleukin 4 receptor, alpha) | 1.25 | enough cells in well |
| Ifnlr1 (interferon lambda receptor 1) | -0.45 | enough cells in well |
| Sdc1 (syndecan 1) | 0.9 | enough cells in well |
| Resp18 (regulated endocrine-specific protein 18) | -1.14 | enough cells in well |
| Or10x1 (olfactory receptor family 10 subfamily X member 1) | 0.45 | enough cells in well |
| Poldip3 (polymerase (DNA-directed), delta interacting protein 3) | 0.22 | enough cells in well |
| Neurod1 (neurogenic differentiation 1) | -1.78 (active) | enough cells in well |
| Map3k2 (mitogen-activated protein kinase kinase kinase 2) | – | fewer than 50 cells per well; well left out of calls |
| Orc1 (origin recognition complex, subunit 1) | 0.47 | enough cells in well |
| Or4k15c (olfactory receptor family 4 subfamily K member 15C) | – | fewer than 50 cells per well; well left out of calls |
| Lhx4 (LIM homeobox protein 4) | 0.23 | enough cells in well |
